The supplement of paper PMC10849652
This is one part of the list.

By UniProt entry, the sequences of proteins in these tests, tags left out. Where a name states a change or a piece, a line headed by the entry shows the natural chain unless it says otherwise.
UniProt O43399: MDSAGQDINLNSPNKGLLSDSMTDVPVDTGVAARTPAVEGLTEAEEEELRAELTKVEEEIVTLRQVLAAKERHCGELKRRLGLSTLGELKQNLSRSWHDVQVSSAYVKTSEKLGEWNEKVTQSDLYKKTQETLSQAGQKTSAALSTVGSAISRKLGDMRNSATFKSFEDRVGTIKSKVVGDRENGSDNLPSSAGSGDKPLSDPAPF
UniProt Q8WWH5: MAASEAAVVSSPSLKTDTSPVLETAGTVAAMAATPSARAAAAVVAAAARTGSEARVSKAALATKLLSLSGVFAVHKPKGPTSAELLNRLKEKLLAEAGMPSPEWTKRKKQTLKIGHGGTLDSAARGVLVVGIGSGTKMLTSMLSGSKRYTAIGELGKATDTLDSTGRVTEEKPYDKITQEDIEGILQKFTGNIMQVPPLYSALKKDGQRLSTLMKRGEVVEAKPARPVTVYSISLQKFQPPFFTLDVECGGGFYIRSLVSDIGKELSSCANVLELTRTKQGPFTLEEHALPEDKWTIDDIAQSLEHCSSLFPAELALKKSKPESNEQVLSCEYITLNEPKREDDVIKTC
UniProt P07951, whole entry, looked up: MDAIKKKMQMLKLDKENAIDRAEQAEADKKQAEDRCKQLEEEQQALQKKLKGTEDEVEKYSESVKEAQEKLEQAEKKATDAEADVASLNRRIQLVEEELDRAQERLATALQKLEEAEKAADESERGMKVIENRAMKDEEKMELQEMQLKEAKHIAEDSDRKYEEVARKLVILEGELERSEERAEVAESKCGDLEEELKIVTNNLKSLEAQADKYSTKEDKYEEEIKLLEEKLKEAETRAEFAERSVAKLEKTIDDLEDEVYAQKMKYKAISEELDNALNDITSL
UniProt Q6ZVM7: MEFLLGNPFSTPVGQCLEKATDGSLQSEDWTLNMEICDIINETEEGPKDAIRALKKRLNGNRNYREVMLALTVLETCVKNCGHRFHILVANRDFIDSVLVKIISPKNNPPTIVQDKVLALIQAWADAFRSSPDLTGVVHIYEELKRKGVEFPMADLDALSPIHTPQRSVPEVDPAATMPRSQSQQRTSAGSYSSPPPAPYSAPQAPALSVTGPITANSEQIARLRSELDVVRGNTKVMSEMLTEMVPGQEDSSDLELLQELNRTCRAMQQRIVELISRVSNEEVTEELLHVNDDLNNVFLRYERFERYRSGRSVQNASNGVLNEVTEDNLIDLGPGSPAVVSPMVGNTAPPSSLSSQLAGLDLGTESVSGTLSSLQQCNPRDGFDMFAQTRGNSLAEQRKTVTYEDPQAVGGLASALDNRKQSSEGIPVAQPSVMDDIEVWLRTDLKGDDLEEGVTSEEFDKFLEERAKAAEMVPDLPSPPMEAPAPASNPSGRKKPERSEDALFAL
UniProt P28908: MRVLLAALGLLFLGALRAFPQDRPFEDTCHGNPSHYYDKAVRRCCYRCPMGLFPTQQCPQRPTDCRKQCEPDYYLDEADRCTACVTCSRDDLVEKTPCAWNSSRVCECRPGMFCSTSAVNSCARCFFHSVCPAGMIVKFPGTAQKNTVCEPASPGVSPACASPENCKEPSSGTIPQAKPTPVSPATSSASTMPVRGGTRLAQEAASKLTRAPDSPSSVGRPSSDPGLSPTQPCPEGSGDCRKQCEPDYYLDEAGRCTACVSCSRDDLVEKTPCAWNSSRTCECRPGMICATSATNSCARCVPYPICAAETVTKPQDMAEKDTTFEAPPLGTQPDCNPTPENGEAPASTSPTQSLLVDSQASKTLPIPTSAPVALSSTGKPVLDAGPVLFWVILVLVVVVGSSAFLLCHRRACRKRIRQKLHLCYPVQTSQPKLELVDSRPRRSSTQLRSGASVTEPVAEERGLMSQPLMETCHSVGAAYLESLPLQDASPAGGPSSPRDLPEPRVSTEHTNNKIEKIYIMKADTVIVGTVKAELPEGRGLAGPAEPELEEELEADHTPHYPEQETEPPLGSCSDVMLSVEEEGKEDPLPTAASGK
UniProt Q9H3S4: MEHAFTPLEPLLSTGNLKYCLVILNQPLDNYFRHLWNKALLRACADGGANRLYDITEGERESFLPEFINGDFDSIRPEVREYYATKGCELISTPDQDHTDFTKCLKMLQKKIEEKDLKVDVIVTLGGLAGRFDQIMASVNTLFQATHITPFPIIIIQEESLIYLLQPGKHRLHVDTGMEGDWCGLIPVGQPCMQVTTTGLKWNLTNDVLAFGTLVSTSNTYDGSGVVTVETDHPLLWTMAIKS
UniProt Q7Z2T5: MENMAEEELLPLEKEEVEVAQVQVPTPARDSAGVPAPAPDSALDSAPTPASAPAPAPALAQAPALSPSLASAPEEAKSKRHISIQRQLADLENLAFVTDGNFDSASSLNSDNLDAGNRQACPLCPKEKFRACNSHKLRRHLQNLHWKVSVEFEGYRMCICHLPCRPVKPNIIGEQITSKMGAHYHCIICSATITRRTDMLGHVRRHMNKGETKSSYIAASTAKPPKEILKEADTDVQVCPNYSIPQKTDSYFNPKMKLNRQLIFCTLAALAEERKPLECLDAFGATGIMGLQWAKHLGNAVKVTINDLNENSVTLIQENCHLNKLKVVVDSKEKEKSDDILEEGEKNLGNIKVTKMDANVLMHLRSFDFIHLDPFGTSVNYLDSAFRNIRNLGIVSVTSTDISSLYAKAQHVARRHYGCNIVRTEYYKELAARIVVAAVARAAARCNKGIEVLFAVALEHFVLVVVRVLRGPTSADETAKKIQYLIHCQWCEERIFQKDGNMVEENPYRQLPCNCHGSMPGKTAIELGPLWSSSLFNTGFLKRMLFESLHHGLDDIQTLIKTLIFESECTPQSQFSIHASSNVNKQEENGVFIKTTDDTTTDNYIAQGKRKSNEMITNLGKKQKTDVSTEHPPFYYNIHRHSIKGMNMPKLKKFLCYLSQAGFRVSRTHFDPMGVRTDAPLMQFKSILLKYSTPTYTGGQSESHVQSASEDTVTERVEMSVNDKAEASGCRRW
UniProt O43715: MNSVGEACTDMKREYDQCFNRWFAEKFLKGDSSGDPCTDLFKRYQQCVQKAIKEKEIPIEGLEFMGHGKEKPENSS
UniProt Q8IZ69: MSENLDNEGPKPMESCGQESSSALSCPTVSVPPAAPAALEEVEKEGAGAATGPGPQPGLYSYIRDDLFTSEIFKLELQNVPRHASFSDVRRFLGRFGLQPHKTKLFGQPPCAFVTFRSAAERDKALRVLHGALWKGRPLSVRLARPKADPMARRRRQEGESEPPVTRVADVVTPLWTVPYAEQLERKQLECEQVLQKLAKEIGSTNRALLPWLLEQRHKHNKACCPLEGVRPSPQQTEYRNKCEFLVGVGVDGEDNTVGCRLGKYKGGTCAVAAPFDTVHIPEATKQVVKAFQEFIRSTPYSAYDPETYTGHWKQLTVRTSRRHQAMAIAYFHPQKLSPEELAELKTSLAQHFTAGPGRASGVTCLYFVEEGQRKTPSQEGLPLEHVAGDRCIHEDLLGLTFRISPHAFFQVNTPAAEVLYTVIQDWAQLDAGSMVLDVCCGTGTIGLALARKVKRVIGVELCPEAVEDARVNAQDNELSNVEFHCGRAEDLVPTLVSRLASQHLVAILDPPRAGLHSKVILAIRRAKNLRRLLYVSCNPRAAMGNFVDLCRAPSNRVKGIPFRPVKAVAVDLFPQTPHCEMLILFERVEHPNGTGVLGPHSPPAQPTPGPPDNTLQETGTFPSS
UniProt Q9BRZ2: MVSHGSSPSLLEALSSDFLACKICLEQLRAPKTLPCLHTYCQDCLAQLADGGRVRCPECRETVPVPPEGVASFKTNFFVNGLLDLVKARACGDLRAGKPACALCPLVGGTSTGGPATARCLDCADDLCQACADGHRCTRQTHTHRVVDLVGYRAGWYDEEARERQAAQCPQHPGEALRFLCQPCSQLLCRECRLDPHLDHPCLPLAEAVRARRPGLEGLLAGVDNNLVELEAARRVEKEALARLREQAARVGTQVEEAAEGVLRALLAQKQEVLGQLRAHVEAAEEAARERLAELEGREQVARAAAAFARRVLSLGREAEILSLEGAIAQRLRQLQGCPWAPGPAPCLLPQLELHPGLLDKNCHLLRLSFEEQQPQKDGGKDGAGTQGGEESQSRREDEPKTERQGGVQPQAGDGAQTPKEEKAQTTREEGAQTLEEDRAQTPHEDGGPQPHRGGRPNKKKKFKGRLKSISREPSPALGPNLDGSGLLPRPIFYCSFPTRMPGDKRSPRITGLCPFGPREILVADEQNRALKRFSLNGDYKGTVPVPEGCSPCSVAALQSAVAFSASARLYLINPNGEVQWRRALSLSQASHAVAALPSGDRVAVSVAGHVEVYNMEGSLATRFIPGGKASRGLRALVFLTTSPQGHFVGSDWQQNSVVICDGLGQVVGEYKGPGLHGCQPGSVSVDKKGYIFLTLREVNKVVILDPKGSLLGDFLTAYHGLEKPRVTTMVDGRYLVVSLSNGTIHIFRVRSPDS
UniProt Q96DX7: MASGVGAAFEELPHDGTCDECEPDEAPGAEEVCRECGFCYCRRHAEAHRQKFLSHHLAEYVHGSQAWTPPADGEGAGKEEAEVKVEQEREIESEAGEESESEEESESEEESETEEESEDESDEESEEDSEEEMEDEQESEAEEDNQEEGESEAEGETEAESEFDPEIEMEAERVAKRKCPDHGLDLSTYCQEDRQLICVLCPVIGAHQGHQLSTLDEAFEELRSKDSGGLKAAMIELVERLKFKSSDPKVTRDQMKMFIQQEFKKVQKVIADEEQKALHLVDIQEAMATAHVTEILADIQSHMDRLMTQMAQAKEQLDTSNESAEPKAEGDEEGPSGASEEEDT
UniProt Q8NCE0: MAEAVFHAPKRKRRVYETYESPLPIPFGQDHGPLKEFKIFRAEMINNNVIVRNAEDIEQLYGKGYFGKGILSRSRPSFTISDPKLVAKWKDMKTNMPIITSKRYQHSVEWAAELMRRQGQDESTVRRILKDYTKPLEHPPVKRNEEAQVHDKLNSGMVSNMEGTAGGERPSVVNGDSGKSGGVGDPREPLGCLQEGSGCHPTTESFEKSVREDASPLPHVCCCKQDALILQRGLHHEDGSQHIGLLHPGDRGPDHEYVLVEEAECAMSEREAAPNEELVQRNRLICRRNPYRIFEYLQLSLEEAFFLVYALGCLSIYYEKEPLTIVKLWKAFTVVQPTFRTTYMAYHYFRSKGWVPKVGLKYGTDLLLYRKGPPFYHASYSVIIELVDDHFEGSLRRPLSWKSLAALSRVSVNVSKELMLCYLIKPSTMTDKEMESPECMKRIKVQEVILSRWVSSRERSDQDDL
UniProt Q5JTV8: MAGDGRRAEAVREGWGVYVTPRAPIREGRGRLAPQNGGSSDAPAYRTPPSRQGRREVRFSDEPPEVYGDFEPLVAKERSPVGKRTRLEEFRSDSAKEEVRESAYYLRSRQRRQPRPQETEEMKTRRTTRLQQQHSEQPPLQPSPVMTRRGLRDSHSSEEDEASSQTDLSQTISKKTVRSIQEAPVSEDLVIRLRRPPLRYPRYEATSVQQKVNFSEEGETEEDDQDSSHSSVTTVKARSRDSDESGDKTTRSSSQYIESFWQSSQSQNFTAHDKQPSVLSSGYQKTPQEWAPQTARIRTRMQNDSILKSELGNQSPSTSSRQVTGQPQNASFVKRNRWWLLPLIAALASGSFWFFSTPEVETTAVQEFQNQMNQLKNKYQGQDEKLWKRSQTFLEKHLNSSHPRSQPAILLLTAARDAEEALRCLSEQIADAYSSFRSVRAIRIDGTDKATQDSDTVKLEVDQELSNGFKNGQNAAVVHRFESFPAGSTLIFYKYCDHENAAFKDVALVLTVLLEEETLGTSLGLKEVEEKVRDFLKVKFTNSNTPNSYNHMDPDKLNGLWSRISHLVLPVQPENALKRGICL
UniProt Q15642: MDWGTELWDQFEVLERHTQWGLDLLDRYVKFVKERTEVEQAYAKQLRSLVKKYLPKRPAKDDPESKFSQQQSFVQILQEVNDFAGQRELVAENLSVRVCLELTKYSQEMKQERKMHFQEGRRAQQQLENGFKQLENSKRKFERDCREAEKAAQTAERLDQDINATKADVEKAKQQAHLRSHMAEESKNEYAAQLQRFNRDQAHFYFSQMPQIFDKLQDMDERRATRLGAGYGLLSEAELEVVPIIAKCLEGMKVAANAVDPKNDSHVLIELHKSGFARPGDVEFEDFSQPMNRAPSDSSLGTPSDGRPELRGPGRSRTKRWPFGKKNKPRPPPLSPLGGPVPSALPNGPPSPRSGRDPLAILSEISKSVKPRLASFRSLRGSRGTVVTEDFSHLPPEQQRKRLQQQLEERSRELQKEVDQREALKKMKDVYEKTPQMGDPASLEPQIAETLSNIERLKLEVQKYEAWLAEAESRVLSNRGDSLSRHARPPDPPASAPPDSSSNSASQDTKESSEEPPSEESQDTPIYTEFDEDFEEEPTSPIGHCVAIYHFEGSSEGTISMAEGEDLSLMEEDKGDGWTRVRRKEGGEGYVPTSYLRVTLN

Assays:
Assay in all cases: log2 fold change, soluble protein after heating vs DMSO (PISA); higher = thermal stabilisation; K562 cells, 10 uM, 30 min; active = over 0.2 and 3.5 SD of the protein, either way, in both replicates (recomputed)
saracatinib = compound: CN1CCN(CCOc2cc(OC3CCOCC3)c3c(Nc4c(Cl)ccc5c4OCO5)ncnc3c2)CC1 [saracatinib]
How it was run: (§1)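 Values are thermal stability changes relative to control samples and are taken from duplicates. They are stated as log2 fold changes. Before quantification by TMTpro 16plex LC-MS/MS with equalised channel sums, K562 cells at 2×10^6 cells/mL were treated with 10 μM compound for 30 min, heated in aliquots for 3 min across 48°C-58°C, pooled, extracted in PBS with 0.5% NP-40 at 4°C, and centrifuged at 21,000xg for 90 min to give the soluble supernatant.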

sotrastaurin = compound: CN1CCN(c2nc(C3=C(c4c[nH]c5ccccc45)C(=O)NC3=O)c3ccccc3n2)CC1 [sotrastaurin]
How it was run: as §1

alvocidib = compound: CN1CC[C@H](c2c(O)cc(O)c3c(=O)cc(-c4ccccc4Cl)oc23)[C@H](O)C1 [alvocidib]
How it was run: as §1

Tubastatin A = compound: CN1CCc2c(c3ccccc3n2Cc2ccc(C(=O)NO)cc2)C1 [Tubastatin A]
How it was run: as §1

[1] = compound: CNC(=O)C1=CC=CC=C1NC2=NC(=NC=C2Cl)NC3=C(C=C(C=C3)N4CCOCC4)OC
How it was run: as §1

defactinib = compound: CNC(=O)c1ccc(Nc2ncc(C(F)(F)F)c(NCc3nccnc3N(C)S(C)(=O)=O)n2)cc1 [defactinib]
How it was run: as §1

rucaparib = compound: CNCc1ccc(-c2[nH]c3cc(F)cc4c3c2CCNC4=O)cc1 [rucaparib]
How it was run: as §1

[2] = compound: CNc1nc(-c2ccc3c(N)n[nH]c3c2)cc(N2C[C@@H](C(=O)NC3CCCCC3)CC[C@H]2C)n1
How it was run: as §1

encorafenib = compound: COC(=O)N[C@@H](C)CNc1nccc(-c2cn(C(C)C)nc2-c2cc(Cl)cc(NS(C)(=O)=O)c2F)n1 [encorafenib]
How it was run: as §1

[3] = compound: COC(=O)[C@H](CCSC)NC(=O)C1=C(C=C(C=C1)NC[C@H](CS)N)C2=CC=CC=C2
How it was run: as §1

| Target | log2 fold change (saracatinib) | log2 fold change (sotrastaurin) | log2 fold change (alvocidib) | log2 fold change (Tubastatin A) | log2 fold change [1] | log2 fold change (defactinib) | log2 fold change (rucaparib) | log2 fold change [2] | log2 fold change (encorafenib) | log2 fold change [3] |
| --- | --- | --- | --- | --- | --- | --- | --- | --- | --- | --- |
| TPD52L2 isoform 7 (UniProt O43399) | inactive: 0.015 | inactive: 0.073 | inactive: 0.018 | inactive: -0.008 | inactive: -0.016 | inactive: -0.01 | inactive: -0.034 | inactive: -0.02 | inactive: -0.021 | inactive: 0.036 |
| TRUB1 (UniProt Q8WWH5) | inactive: -0.078 | inactive: -0.018 | inactive: -0.077 | inactive: 0.043 | inactive: 0.031 | inactive: -0.047 | inactive: -0.013 | inactive: -0.046 | inactive: 0.016 | inactive: -0.063 |
| TPM2 (UniProt P07951) | inactive: 0.177 | inactive: -0.033 | – | inactive: -0.012 | inactive: 0.004 | inactive: 0.042 | inactive: -0.027 | inactive: -0.026 | inactive: -0.006 | inactive: 0.102 |
| TOM1L2 (UniProt Q6ZVM7) | inactive: -0.02 | inactive: -0.091 | active: -0.357 | – | inactive: -0.102 | inactive: -0.072 | – | inactive: -0.05 | – | inactive: 0.058 |
| TNFRSF8 (UniProt P28908) | inactive: 0.037 | inactive: 0.092 | – | inactive: 0.031 | inactive: -0.013 | inactive: -0.034 | inactive: 0.012 | inactive: 0.04 | inactive: -0.046 | inactive: -0.02 |
| TPK1 (UniProt Q9H3S4) | inactive: 0.045 | inactive: 0.054 | inactive: -0.091 | inactive: -0.093 | inactive: 0.045 | inactive: 0.035 | – | inactive: -0.164 | – | inactive: 0.005 |
| TRMT1L (UniProt Q7Z2T5) | inactive: -0.113 | inactive: -0.032 | inactive: 0.272 | inactive: 0.095 | inactive: 0.02 | inactive: 0.321 | inactive: 0.276 | inactive: 0.143 | inactive: 0.163 | inactive: -0.134 |
| TRIAP1 (UniProt O43715) | inactive: -0.07 | inactive: 0.024 | inactive: -0.126 | inactive: 0.029 | inactive: -0.057 | inactive: 0.069 | inactive: -0.021 | inactive: -0.014 | inactive: -0.155 | inactive: -0.036 |
| TRMT2A (UniProt Q8IZ69) | inactive: -0.011 | inactive: -0.076 | – | inactive: -0.005 | inactive: -0.049 | inactive: -0.031 | inactive: 0.084 | inactive: 0.094 | inactive: 0.056 | inactive: -0.094 |
| TRIM56 (UniProt Q9BRZ2) | inactive: -0.069 | inactive: -0.057 | inactive: 0.124 | inactive: 0.096 | inactive: 0.004 | – | inactive: 0.063 | inactive: 0.087 | inactive: 0.069 | – |
| TRIM44 (UniProt Q96DX7) | inactive: 0.035 | inactive: -0.076 | – | inactive: 0.116 | inactive: -0.01 | inactive: -0.053 | inactive: -0.092 | inactive: -0.026 | inactive: 0.032 | inactive: 0.025 |
| TSEN2 (UniProt Q8NCE0) | inactive: -0.014 | inactive: -0.186 | – | inactive: -0.024 | inactive: -0.042 | inactive: -0.009 | inactive: 0.007 | inactive: -0.005 | inactive: -0.068 | inactive: -0.049 |
| TOR1AIP1 isoform 3 (UniProt Q5JTV8) | inactive: 0.02 | inactive: 0.031 | inactive: -0.017 | inactive: -0.019 | inactive: -0.002 | inactive: -0.021 | inactive: 0.014 | inactive: -0.046 | inactive: -0.025 | inactive: 0.036 |
| TRIP10 (UniProt Q15642) | inactive: 0.036 | inactive: -0.014 | – | inactive: 0 | inactive: 0.027 | inactive: -0.029 | inactive: 0.006 | inactive: 0.046 | inactive: 0.038 | inactive: -0.005 |
| TPR (UniProt P12270) | inactive: 0.152 | inactive: -0.147 | – | inactive: -0.035 | inactive: 0.239 | inactive: 0.005 | inactive: -0.043 | inactive: -0.112 | inactive: -0.047 | inactive: 0.023 |

A portion from further up:

| Target | log2 fold change (saracatinib) | log2 fold change (sotrastaurin) | log2 fold change (alvocidib) | log2 fold change (Tubastatin A) | log2 fold change [1] | log2 fold change (defactinib) | log2 fold change (rucaparib) | log2 fold change [2] | log2 fold change (encorafenib) | log2 fold change [3] |
| --- | --- | --- | --- | --- | --- | --- | --- | --- | --- | --- |
| TRMT2A (UniProt Q8IZ69) | inactive: -0.011 | inactive: -0.076 | – | inactive: -0.005 | inactive: -0.049 | inactive: -0.031 | inactive: 0.084 | inactive: 0.094 | inactive: 0.056 | inactive: -0.094 |
| TRIM56 (UniProt Q9BRZ2) | inactive: -0.069 | inactive: -0.057 | inactive: 0.124 | inactive: 0.096 | inactive: 0.004 | – | inactive: 0.063 | inactive: 0.087 | inactive: 0.069 | – |
